Values of other authors in US20190151271A1, “COMPOSITIONS AND METHODS FOR TREATMENT OF EYE DISEASES” (The Johns Hopkins University, priority 2017, published 2019).
The name of at least one read-out is uncertain.

Conditions: cited from earlier work

For N-acetylcysteine amide [NACA], the “lipophilicity, cell permeability and bioavailability compared with NAC” value is given as “increased lipophilicity and, therefore, greater cell permeability and bioavailability than NAC”.
